For this assay, the target named is Recombinant human Cripto-1 (human) (UniProt P13385). In words: SPR; rhCripto-1 amine-coupled on a CM5 chip (600 RU); rhNodal at 5 nM in HBS injected, alone or after 30 min pre-incubation with 3D1 mAb at 1:0.5, 1:1 and 1:2 molar ratio; 25°C, HBS (20 mM HEPES, 0.15 M NaCl, pH 7.2, 0.005% P20), 20 uL/min; both purified. For orientation: SPR reads the build-up and loss of mass on a sensor chip optically.

Amino acid sequences for entries named in this document (tags omitted). A change or cut given only in a name is not applied to a line headed by its entry. Residues count along the entry.
UniProt P13385, residues 31-150: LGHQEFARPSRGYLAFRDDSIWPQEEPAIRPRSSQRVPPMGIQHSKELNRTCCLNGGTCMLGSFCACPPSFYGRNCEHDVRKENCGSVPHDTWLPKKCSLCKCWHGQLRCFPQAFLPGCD
UniProt Q96S42: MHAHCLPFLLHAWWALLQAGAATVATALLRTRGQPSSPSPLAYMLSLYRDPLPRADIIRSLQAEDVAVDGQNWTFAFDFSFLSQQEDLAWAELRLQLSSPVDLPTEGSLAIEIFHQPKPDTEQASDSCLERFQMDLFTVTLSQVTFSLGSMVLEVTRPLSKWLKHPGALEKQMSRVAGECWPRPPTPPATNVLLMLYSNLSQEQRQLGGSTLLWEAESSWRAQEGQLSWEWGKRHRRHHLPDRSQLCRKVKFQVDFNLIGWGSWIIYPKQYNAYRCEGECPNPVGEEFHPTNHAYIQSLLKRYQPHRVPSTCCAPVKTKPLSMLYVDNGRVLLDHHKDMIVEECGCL

Here are results for 1 substance from PMC4741437.

Results are given in words; binding and its absence hold for the method and conditions named. Binding can be weak; no strength is given.

As to “Recombinant human Nodal (from UniProt Q96S42) (ligand)”, the binding entry is given as “binds”.
